# Measurements as given in the supplement of paper PMC6411743.
# ± gives the standard deviation of the averaged measurements. The list shows a part of the results.
# Experiments:
# Test in all cases: NP40-soluble protein abundance relative to vehicle (solubility fold change) (ratio); higher = more soluble protein in presence of GTP
# MNT = target: T1, MNT (UniProt Q99583)
# T1 sequence (whole entry): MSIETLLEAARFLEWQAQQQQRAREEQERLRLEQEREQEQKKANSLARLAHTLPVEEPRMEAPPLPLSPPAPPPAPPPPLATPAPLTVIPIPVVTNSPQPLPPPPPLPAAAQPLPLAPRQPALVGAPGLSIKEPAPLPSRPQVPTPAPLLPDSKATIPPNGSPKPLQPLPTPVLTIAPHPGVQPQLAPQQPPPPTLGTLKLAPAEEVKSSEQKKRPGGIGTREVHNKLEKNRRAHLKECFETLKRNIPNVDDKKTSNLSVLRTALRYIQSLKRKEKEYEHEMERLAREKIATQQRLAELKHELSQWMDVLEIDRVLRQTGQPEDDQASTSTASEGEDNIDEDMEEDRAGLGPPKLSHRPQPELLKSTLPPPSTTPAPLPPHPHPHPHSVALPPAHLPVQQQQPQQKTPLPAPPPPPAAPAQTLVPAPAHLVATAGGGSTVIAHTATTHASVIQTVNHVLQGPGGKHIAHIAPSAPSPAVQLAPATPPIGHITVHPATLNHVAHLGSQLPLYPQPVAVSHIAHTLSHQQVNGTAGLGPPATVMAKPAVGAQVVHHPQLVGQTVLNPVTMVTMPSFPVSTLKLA
# How it was run: (§1)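 In three independent experiments, Jurkat crude lysate made by Dounce homogenisation was treated for 10 min at room temperature and then 3 min at 37 °C with eight concentrations ranging from 0.1 to 10 mM. It was then solubilised with 0.8% NP40 plus benzonase for 60 min at 4 °C and ultracentrifuged. The supernatant was TMT-labelled for LC-MS/MS, and each value is the fold change against the detergent-processed vehicle for the same replicate, using vsn-normalised intensities.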
# NACC1 = target: T2, NACC1 (UniProt Q96RE7)
# T2 sequence (whole entry): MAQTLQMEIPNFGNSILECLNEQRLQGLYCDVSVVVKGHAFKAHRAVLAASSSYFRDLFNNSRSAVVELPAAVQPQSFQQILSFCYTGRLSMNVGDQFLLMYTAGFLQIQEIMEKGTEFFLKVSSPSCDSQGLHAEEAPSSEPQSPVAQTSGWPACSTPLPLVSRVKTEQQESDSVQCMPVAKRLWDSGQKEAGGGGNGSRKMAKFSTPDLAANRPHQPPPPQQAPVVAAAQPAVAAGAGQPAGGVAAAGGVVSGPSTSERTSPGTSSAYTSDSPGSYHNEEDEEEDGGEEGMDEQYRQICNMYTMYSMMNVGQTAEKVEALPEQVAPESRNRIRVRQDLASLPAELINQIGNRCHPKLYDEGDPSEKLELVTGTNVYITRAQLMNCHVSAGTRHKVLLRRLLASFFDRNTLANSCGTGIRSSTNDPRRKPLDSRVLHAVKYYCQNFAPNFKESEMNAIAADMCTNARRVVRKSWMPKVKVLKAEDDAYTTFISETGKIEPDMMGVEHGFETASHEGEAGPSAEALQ
# How it was run: as §1
# NOC4L = target: T3, NOC4L (UniProt Q9BVI4)
# T3 sequence (whole entry): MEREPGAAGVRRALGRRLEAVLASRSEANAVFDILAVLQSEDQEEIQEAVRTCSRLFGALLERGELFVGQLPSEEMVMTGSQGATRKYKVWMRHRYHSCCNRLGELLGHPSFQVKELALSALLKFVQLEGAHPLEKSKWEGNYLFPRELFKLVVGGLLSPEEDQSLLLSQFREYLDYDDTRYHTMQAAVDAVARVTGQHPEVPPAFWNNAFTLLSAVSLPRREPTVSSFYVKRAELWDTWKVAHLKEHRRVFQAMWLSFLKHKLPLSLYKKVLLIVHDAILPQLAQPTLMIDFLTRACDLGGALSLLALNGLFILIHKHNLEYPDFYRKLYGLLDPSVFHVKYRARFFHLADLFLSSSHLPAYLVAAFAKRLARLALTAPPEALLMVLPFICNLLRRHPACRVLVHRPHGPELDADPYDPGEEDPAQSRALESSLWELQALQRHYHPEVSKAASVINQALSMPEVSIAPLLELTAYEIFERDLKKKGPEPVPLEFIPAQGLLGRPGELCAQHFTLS
# How it was run: as §1
# NUF2 = target: T4, NUF2 (UniProt Q9BZD4)
# T4 sequence (whole entry): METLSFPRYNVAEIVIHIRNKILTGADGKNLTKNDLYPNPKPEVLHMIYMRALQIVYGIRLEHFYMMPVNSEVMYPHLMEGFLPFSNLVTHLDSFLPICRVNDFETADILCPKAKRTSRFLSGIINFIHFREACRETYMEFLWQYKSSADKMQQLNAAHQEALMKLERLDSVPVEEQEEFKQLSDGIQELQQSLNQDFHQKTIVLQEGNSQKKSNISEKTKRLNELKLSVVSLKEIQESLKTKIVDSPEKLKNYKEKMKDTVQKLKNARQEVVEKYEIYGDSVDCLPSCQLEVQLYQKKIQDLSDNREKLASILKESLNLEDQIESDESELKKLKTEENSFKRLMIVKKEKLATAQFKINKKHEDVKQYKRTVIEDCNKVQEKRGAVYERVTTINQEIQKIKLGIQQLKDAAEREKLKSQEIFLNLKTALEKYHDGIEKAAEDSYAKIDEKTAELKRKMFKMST
# How it was run: as §1
structure (smiles),measurement,setting,value
Nc1nc2c(ncn2[C@@H]2O[C@H](COP(=O)(O)OP(=O)(O)OP(=O)(O)O)[C@@H](O)[C@H]2O)c(=O)[nH]1 [guanosine triphosphate],NP40-soluble protein abundance,MNT; concentration: 4mM,0.898 ± 0.019
same,NP40-soluble protein abundance,MNT; concentration: 6mM,0.875 ± 0.029
same,NP40-soluble protein abundance,MNT; concentration: 8mM,0.89 ± 0.052
same,NP40-soluble protein abundance,MNT; concentration: 10mM,0.915 ± 0.015
same,NP40-soluble protein abundance,NACC1; concentration: 0.1mM,0.948 ± 0.048
same,NP40-soluble protein abundance,NACC1; concentration: 0.5mM,0.964 ± 0.042
same,NP40-soluble protein abundance,NACC1; concentration: 1mM,0.945 ± 0.043
same,NP40-soluble protein abundance,NACC1; concentration: 2mM,0.966 ± 0.035
same,NP40-soluble protein abundance,NACC1; concentration: 4mM,0.907 ± 0.052
same,NP40-soluble protein abundance,NACC1; concentration: 6mM,0.939 ± 0.013
same,NP40-soluble protein abundance,NACC1; concentration: 8mM,0.909 ± 0.068
same,NP40-soluble protein abundance,NACC1; concentration: 10mM,0.933 ± 0.029
same,NP40-soluble protein abundance,NOC4L; concentration: 0.1mM,1.02 ± 0.06
same,NP40-soluble protein abundance,NOC4L; concentration: 0.5mM,0.976 ± 0.018
same,NP40-soluble protein abundance,NOC4L; concentration: 1mM,0.938 ± 0.057
same,NP40-soluble protein abundance,NOC4L; concentration: 2mM,1.02 ± 0.072
same,NP40-soluble protein abundance,NOC4L; concentration: 4mM,1 ± 0.024
same,NP40-soluble protein abundance,NOC4L; concentration: 6mM,0.976 ± 0.01
same,NP40-soluble protein abundance,NOC4L; concentration: 8mM,0.965 ± 0.071
same,NP40-soluble protein abundance,NOC4L; concentration: 10mM,0.927 ± 0.037
same,NP40-soluble protein abundance,NUF2; concentration: 0.1mM,0.933 ± 0.1
same,NP40-soluble protein abundance,NUF2; concentration: 0.5mM,0.914 ± 0.095
same,NP40-soluble protein abundance,NUF2; concentration: 1mM,0.97 ± 0.047
same,NP40-soluble protein abundance,NUF2; concentration: 2mM,0.919 ± 0.12
same,NP40-soluble protein abundance,NUF2; concentration: 4mM,0.954 ± 0.13
same,NP40-soluble protein abundance,NUF2; concentration: 6mM,0.977 ± 0.046

# Rewritten as tab-separated lines: entries from further up
structure (smiles)	measurement	setting	value
Nc1nc2c(ncn2[C@@H]2O[C@H](COP(=O)(O)OP(=O)(O)OP(=O)(O)O)[C@@H](O)[C@H]2O)c(=O)[nH]1 [guanosine triphosphate]	NP40-soluble protein abundance	MNT; concentration: 6mM	0.875 ± 0.029
same	NP40-soluble protein abundance	NOC4L; concentration: 8mM	0.965 ± 0.071
